Earlier results in US20150313892A1, “PHARMACEUTICAL COMPOSITIONS FOR TREATING PAIN ASSOCIATED WITH DYSMENORRHEA” (priority 2014, published 2015).
For at least one compound, name, drawing or mass did not settle the structure.

How the values were obtained:
[1] = molecular target: NMDA; conditions: read-out: Binding Constant Ki, NMDA; cited from earlier work
[2] = molecular target: Sigma; conditions: read-out: Binding Constant Ki, Sigma; cited from earlier work

For `CN1CC[C@@]23CCCC[C@@H]2[C@@H]1Cc1ccc(O)cc13` [Dextrorphan], the Ki [1] is given as 450 nM and the Ki [2] is given as 559 nM.
